Experimental data: paper PMC7375819
Results are given in words; binding and its absence hold for the method and conditions named. Some results given as binding are weak or reduced against the parent protein; the word gives no strength.

Amino acid sequences for entries named in this document (tags omitted).
UniProt P49951: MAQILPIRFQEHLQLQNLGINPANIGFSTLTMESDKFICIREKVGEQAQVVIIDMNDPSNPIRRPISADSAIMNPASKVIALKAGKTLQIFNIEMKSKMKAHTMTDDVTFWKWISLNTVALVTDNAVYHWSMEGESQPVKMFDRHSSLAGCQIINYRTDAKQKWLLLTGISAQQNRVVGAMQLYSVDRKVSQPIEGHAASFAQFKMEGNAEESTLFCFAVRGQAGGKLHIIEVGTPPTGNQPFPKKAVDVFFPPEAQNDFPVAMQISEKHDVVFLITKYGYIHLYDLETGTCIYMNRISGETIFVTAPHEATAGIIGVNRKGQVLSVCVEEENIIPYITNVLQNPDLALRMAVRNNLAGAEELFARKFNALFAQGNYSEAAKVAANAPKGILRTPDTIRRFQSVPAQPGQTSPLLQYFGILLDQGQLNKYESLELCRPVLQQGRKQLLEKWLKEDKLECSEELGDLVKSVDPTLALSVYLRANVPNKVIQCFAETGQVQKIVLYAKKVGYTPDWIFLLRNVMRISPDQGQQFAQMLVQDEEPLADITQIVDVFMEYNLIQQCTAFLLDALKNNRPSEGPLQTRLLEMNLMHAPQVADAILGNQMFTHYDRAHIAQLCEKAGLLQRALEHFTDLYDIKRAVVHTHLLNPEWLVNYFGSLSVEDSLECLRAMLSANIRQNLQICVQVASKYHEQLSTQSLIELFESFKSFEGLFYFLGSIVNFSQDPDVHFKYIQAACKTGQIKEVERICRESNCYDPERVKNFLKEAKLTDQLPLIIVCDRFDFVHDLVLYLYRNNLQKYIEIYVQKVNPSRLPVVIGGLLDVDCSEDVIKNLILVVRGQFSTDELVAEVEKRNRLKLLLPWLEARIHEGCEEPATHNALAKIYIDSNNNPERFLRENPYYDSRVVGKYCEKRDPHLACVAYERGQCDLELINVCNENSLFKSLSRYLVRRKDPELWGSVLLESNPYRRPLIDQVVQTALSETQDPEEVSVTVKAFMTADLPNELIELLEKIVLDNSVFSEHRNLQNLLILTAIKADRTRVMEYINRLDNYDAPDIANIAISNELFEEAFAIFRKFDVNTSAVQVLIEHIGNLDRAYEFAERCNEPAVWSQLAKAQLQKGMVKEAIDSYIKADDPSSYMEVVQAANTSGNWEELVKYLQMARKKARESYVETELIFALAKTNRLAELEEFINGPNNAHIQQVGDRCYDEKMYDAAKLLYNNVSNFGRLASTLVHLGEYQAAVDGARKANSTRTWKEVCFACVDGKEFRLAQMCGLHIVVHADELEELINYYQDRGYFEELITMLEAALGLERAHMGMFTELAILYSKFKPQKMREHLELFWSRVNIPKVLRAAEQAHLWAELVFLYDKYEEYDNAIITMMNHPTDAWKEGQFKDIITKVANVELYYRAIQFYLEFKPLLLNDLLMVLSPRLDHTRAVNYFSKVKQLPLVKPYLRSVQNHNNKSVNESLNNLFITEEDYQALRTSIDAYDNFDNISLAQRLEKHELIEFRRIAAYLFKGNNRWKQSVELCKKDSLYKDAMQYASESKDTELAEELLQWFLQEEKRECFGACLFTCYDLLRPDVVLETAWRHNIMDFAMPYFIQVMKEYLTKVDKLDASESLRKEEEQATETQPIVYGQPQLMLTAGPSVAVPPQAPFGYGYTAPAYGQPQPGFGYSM
UniProt P63009: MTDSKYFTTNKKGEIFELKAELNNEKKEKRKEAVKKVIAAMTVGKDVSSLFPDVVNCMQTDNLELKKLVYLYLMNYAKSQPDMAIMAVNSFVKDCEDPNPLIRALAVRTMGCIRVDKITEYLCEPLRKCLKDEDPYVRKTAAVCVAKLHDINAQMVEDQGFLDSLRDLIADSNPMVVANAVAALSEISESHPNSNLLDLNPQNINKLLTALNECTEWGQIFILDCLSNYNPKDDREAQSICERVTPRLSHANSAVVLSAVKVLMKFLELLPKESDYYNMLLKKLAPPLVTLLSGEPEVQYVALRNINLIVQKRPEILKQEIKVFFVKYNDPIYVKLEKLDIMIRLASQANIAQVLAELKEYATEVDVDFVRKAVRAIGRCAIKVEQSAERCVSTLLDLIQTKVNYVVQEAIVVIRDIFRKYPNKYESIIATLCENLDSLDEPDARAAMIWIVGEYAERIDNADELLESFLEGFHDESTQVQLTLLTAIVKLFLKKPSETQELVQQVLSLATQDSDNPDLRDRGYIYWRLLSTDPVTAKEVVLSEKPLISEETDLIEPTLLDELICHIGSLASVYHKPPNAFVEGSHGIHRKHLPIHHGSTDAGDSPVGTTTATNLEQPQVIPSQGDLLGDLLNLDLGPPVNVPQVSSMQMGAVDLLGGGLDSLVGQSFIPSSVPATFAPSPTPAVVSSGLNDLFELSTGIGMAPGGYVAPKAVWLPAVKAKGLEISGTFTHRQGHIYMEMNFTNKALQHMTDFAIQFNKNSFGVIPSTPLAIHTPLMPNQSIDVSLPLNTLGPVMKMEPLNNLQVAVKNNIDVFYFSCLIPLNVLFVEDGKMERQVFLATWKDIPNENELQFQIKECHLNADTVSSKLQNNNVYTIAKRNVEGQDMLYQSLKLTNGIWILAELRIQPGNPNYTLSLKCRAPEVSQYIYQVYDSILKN

Target: clathrin heavy chain (Bos taurus (endogenous in cow brain)) (UniProt P49951)
Test: cryo-EM structure; single-particle cryo-EM of natively assembled clathrin-coated vesicles purified from bovine brain in MES buffer pH 6.7 at 4°C; five cage geometries; subparticle refinement of the mini-coat asymmetric vertex (6.3 Å, atomic model PDB 6WCJ) and of hexagonal and pentagonal faces

binding | Substance
binds | clathrin heavy chain (from UniProt P49951 1-1675)
binds | AP2 β2 adaptin (from UniProt P63009 1-937)
